We go through 42 sequences from publication PMC7819943, “Rice protein-binding microarrays: a tool to detect cis-acting elements near promoter regions in rice”.

Chains of the proteins cited; added tags and fusions are not shown.
UniProt Q0JBA9, entry or part of it: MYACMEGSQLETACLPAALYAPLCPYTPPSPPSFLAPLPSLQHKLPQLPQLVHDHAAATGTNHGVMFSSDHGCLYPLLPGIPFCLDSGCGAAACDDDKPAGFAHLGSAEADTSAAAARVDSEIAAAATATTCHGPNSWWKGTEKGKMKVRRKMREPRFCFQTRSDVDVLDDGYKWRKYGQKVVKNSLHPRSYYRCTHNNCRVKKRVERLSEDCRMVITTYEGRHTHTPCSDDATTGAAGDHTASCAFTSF

This is one part of the list.

This assay addresses OsWRKY34 (Oryza sativa, UniProt Q0JBA9 1-250). The experiment in a line: protein-binding microarray (RPBM); PBS, 2% BSA, 51.3 ng/ul salmon testes DNA, 50 uM zinc acetate, 200 nM TF, 25 C, 1 h; high values mean tight binding. The settings on record: protein: recombinant; tags: N-terminal polyhistidine and DsRed monomer fusion (pET32a); label: CyDye5-dUTP incorporated in the synthesized complementary strand; 3' TTTTT single-stranded linker to array surface; dsDNA, one strand shown. The method, boiled down: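 Ni–NTA purification followed expression in E. coli BL21-CodonPlus of transcription factors fused N-terminally to a polyhistidine tag and DsRed. At 200 nM in PBS with 2% BSA, salmon testes DNA and 50 µM zinc acetate, the protein was incubated for 1 h at 25 °C with a custom Agilent array that had been primer-extended with Cy5-dUTP and blocked with 2% BSA. After washing, the array was read on an Axon 4000B scanner. The binding signal is per-feature fluorescence intensity in arbitrary units.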
Take “GCGTGCTCCGCGCCTCCGCCAGATCACGATCTCCTCTTCACGGAGTCACCTAGTGCAG”: the binding signal was 8860 fluorescence intensity (a.u.).
Turning to “GGGGTCTCGCTGAGTCGCCTGTCGCCGTCTCGGCTGCTCCCGGAGTCACCTAGTGCAG”, the binding signal is 8050 fluorescence intensity (a.u.).
On to “GTCTCAATACATTTTCTGCCATGTATGGGCATATGCCTCTCGGAGTCACCTAGTGCAG”, for which the binding signal is 8350 fluorescence intensity (a.u.).
As to “ATAGTTAAATTGCCCCTCACAACACCACCTGTCGCTGATTCGGAGTCACCTAGTGCAG”, the binding signal was 9460 fluorescence intensity (a.u.).
As to “TTCTCCTGTACCTTTTTATATATGTTATTTTTTAGTCAATCGGAGTCACCTAGTGCAG”, the binding signal was 11400 fluorescence intensity (a.u.).
The same measure for “TCTCGTCGTCTTCTTCGTCTCCCTACCTCCTCTTACCTCACGGAGTCACCTAGTGCAG”: 8200 fluorescence intensity (a.u.).
Regarding “CATCACTTTTGTCACCCAATTCATTTTTCTTTAAAAATATCGGAGTCACCTAGTGCAG”, the binding signal is 8530 fluorescence intensity (a.u.).
For the sequence “TTAAACTTACTAAACATATGGTTTTGTGACACTTCATTTTCGGAGTCACCTAGTGCAG”, the binding signal is 8290 fluorescence intensity (a.u.).
“CGGGTTGGGAATTGGAATTTGCATCTATCTGCCATAGAAGCGGAGTCACCTAGTGCAG”: the binding signal was 9700 fluorescence intensity (a.u.).
For “AACCAGTTCCTTGACTCCACCCTATGTTCCTAAGTCCAAACGGAGTCACCTAGTGCAG”, the binding signal is 10100 fluorescence intensity (a.u.).
The same measure for “CCTCGCCTTGCCTCGCTGCGTCACCAACCTTGACGGCGACCGGAGTCACCTAGTGCAG”: 8030 fluorescence intensity (a.u.); for “CTCAGTCAGTCGGTCAGCCACCATTTTAGTACTAGAACAGCGGAGTCACCTAGTGCAG”: 8990 fluorescence intensity (a.u.).
“TGGGCATTCGTTCCACATATCCTGTGACCCCTTCTCTCATCGGAGTCACCTAGTGCAG”: the binding signal was 9710 fluorescence intensity (a.u.).
Regarding “GACCAAACCTGTACTTGCTTCCCGCGACCGTATCCATCTTCGGAGTCACCTAGTGCAG”, the binding signal was 8120 fluorescence intensity (a.u.).
As to “ATGGTCACATATCATGTCAAATAGGCCTGAAGTTTGTACACGGAGTCACCTAGTGCAG”, the binding signal is 8280 fluorescence intensity (a.u.).
On to “GAGGTGGCTGGAGTGGGGTTTAGTGTTGGTTGTTAGGGATCGGAGTCACCTAGTGCAG”, for which the binding signal is 13500 fluorescence intensity (a.u.).
With “CGTTGACTTTTTAGTACGTGTTTGACCATTCGTCTTATTCCGGAGTCACCTAGTGCAG”, the binding signal is 30200 fluorescence intensity (a.u.).
“CTTCATTTCCTCATATGCCATCCACACCATCTGACTATTTCGGAGTCACCTAGTGCAG”: the binding signal is 12100 fluorescence intensity (a.u.).
In the case of “AGTTTATAGTTGACTTATAGTCTACTGTTATCCTTGCTATCGGAGTCACCTAGTGCAG”, the binding signal was 10700 fluorescence intensity (a.u.).
For the sequence “ACACCACATCTAATTCTAGGTTTTTTTTTCTTTTGGGGCGCGGAGTCACCTAGTGCAG”, the binding signal is 10400 fluorescence intensity (a.u.).
For “GTCCTTATCTGCTCATCGTCCTCACCAAATTGGCAAACTCCGGAGTCACCTAGTGCAG” the value was 13500 fluorescence intensity (a.u.).
For “TGTGGTTGAATGAGTAGTAGAAGTAGGTGGTAAAAGTGAACGGAGTCACCTAGTGCAG” the value was 10500 fluorescence intensity (a.u.); for “CCAACTTTTTATCGTCCGTCTTATTTGAAAAATTTTTATACGGAGTCACCTAGTGCAG”, 10000 fluorescence intensity (a.u.); for “CGAGACCGACTGATGCTACAACTTCTGTCCTTGCTCCGGCCGGAGTCACCTAGTGCAG”, 8620 fluorescence intensity (a.u.).
For “ATCATCAGTGGCATACAAGAATTCAACTTCCAATGGCTTACGGAGTCACCTAGTGCAG” the value was 8560 fluorescence intensity (a.u.); for “TGAACGTTTGCCCTTGTCAACCAATTCTCAGTGGCTTCTGCGGAGTCACCTAGTGCAG”, 9600 fluorescence intensity (a.u.); for “TGTTTTCTTCATTTCTTGCACGTACTATCATGTATTTATTCGGAGTCACCTAGTGCAG”, 15200 fluorescence intensity (a.u.).
Turning to “ATTTGTCATTTTTTCTATGTGTATATGTTGTATTTTGAGCCGGAGTCACCTAGTGCAG”, the binding signal was 8430 fluorescence intensity (a.u.).
For “CCACCGCCAGTCCGCCACCTCCACCTCCACCTCCACCCGACGGAGTCACCTAGTGCAG” the value was 8270 fluorescence intensity (a.u.); for “ATCAGGTGGTTTTTGTGGTGTTCATGTATAAGCTCATCTCCGGAGTCACCTAGTGCAG”, 9710 fluorescence intensity (a.u.).
The same measure for “ATCACGAGTACACTAGCTGAAACATCGTAAAACTACTGGGCGGAGTCACCTAGTGCAG”: 9360 fluorescence intensity (a.u.); for “AGTCATGCGAAACTCATGCATGGCCTTTTCACGTTTTTCTCGGAGTCACCTAGTGCAG”: 8200 fluorescence intensity (a.u.).
“TCTCCTCGTTCGTCTCTCGCCTCGTCTTCCCCGTCCTCCGCGGAGTCACCTAGTGCAG”: the binding signal is 11900 fluorescence intensity (a.u.).
Take “AGCTTTGACTTATCTCCTAGCTGTTTCAGTTTATATACCACGGAGTCACCTAGTGCAG”: the binding signal was 11500 fluorescence intensity (a.u.).
On to “TCATCGCCACCTCGCTCTCGCGCCCTCTGCTCGCGCGCATCGGAGTCACCTAGTGCAG”, for which the binding signal was 10400 fluorescence intensity (a.u.).
As to “TGCTTGCCCTGGGTTTGGTTCTTGGGTCCATCCATCTTCACGGAGTCACCTAGTGCAG”, the binding signal was 9250 fluorescence intensity (a.u.).
Regarding “ATCAATCATATGATCCTTTGATAATTTACCTTATGTTTCCCGGAGTCACCTAGTGCAG”, the binding signal is 8380 fluorescence intensity (a.u.).
In the case of “TATTAGCGCGCCCACTAATTCAGTTCAATTCTCAACTTAACGGAGTCACCTAGTGCAG”, the binding signal is 8790 fluorescence intensity (a.u.).
The same measure for “GGGTTGCGCGGGTGGGCGGCGGCGGTGAAGGTGCGTGTGTCGGAGTCACCTAGTGCAG”: 11600 fluorescence intensity (a.u.); for “TTTTGTGTATGTTTCGGTGGGAATTTGAGGGTTGTGTTTTCGGAGTCACCTAGTGCAG”: 14200 fluorescence intensity (a.u.).
Take “CGGGCCGGCACCGCTTCAATATTCCGTCTTTGCACCCTTTCGGAGTCACCTAGTGCAG”: the binding signal was 8150 fluorescence intensity (a.u.).
Turning to “CGCCTCCGCCTCCTCGCACCGAACCGCCTCGGCGCGAGCGCGGAGTCACCTAGTGCAG”, the binding signal is 8440 fluorescence intensity (a.u.).
